Source: publication PMC9288484

Sequences of proteins named here, by UniProt entry; tags and fusion partners are left off. A change or cut given only in a name is not applied to a line headed by its entry.
UniProt Q3UED7: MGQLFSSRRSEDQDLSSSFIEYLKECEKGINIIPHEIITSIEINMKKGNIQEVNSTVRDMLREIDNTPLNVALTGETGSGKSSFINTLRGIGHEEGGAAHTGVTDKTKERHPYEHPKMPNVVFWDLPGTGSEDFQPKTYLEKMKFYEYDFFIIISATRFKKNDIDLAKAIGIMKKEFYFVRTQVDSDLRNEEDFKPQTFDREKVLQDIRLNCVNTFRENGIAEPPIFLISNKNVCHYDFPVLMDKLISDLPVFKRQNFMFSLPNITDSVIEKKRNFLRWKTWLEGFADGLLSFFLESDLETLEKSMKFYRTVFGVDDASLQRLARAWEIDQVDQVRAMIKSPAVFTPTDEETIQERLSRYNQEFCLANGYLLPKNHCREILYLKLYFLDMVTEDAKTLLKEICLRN

Molecular target: GST-tagged Gm4951 (mouse) (UniProt Q3UED7)
Test: pull-down; GST or GST-Gm4951 on glutathione agarose beads incubated with eluted purified 3xFlag-Hsd17b13 in GST pull-down buffer (20 mM Tris-Cl pH 8.0, 200 mM NaCl, 1 mM EDTA, 0.5% Nonidet P-40, PMSF), 4 °C, 2 h; Flag immunoblot; both purified

B1: 3xFlag-tagged Hsd17b13 (mouse) from 293T cells (protein, UniProt Q8VCR2-2 20-300)
chain: ESLVKFFIPRRRKSVTGQTVLITGAGHGIGRLTAYEFAKQKSRLVLWDINKRGVEETADKCRKLGAVVHVFVVDCSNRAEIYNSVDQVKREVGDVEIVVNNAGAIYPADLLSAKDEEITKTFEVNILGHFWIIKALLPSMLRRNSGHIVTVASVCGHGVIPYLIPYCSSKFAAVGFHRALTAELDTLGKTGIQTSCLCPVFVNTGFTKNPSTRLWPVLEPEEVARSLINGILTNKKMIFVPSYINISLILEKFLPERALKAISRIQNIQFEAIVGHKTKMK
- binding: binds

These are yes or no findings as the source states them, for the method shown. Binding calls can cover weak binding; strength is not graded here. Where a sequence is shown, tags or fusion partners need not be part of it.
